Experimental data from patent US4505908A, “7-Bromo-5-(2-halophenyl)-1H-2,3-dihydro-1,4-benzodiazepine pharmaceuticals” (priority 1981, dated 1985).

Assay: Acute Toxicity (7-day, single application per os)
Conditions: in vivo, po, single application p.o., NMRI mouse on an empty stomach
Procedure: The acute 7-day toxicity is determined after a single application per os on the white NMRI mouse, on an empty stomach, and the LD50 values are calculated by means of electronic data processing through a probit analysis.

CN1C(=O)CN=C(c2ccccc2)c2cc(Cl)ccc21 [Diazepam, diazepam]
LD50 at 168 h: 850 mg/kg
